Measurements from paper PMC6696983.
Results are given in words; binding and its absence hold for the method and conditions named. Some results given as binding are weak or reduced against the parent protein; the word gives no strength.

Sequences of proteins named here, by UniProt entry; tags and fusion partners are left off. A change or cut given only in a name is not applied to a line headed by its entry. A line that says so, or that is headed by a name, gives the form on record, which may keep a tag or linker. Residues count along the entry.
UniProt P11021, residues 19-654: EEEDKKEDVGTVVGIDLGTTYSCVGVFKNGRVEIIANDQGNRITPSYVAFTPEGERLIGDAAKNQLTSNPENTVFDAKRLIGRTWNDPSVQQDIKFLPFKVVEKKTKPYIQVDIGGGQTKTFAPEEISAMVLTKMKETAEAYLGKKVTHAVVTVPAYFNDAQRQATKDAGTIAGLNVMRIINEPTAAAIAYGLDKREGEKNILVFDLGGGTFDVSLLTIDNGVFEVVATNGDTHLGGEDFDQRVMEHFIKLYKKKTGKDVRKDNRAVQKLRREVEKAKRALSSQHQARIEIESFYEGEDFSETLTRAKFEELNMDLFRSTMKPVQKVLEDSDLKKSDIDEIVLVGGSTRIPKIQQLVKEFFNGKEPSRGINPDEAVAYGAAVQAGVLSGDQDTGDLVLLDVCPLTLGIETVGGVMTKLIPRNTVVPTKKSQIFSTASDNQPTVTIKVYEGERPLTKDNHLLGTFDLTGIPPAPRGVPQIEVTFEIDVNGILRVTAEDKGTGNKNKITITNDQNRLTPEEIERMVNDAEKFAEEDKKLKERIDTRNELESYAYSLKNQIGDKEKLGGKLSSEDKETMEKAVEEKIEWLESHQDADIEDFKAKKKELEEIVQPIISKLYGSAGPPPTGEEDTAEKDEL
CD44v fused to the photoactivatable green fluorescent protein (CD44v-PAGFP) (P16070-4, form named): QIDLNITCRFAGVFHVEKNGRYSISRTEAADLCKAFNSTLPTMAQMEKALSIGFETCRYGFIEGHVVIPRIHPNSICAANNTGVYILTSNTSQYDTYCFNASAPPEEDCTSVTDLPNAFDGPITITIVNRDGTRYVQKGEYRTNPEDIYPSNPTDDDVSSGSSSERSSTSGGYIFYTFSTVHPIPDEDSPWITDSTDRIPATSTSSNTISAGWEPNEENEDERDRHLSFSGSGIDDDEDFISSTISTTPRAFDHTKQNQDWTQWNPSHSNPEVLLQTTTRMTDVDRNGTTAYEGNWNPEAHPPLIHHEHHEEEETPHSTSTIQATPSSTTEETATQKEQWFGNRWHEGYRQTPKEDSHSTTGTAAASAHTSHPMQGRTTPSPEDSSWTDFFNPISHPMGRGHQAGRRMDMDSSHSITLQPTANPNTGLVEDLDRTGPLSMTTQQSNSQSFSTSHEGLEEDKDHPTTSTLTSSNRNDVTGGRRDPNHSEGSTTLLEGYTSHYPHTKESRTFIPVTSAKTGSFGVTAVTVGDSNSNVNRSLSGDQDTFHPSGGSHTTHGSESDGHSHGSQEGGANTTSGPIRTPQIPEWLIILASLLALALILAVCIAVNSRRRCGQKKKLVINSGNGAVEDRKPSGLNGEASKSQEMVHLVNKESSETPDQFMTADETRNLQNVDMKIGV

Target: GRP78 fused to the photoactivatable Tag-red fluorescent protein (PATagRFP-GRP78) (human) (UniProt P11021)
Assay: dual-color single-particle tracking (sptPALM, TIRF); live MCF7-LR cells co-transfected with PATagRFP-GRP78 and CD44v-PAGFP, on collagen I-coated coverslips, 30 ms/frame; co-diffusion and co-confinement of single trajectories at the plasma membrane

CD44v fused to the photoactivatable green fluorescent protein (CD44v-PAGFP) (from UniProt P16070-4 21-699) (receptor)
binding: binds
